From paper PMC7819943, “Rice protein-binding microarrays: a tool to detect cis-acting elements near promoter regions in rice” come the findings set out here.

Protein sequences, listed by entry. Tags and fused reporters are not part of them.
UniProt Q0JBA9, entry or part of it: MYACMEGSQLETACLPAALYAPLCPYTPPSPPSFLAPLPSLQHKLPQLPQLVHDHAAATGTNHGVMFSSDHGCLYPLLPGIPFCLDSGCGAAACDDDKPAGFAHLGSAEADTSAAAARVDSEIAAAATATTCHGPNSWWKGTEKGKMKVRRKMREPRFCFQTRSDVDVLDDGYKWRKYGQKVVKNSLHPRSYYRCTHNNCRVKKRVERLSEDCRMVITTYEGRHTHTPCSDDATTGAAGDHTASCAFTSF

This is one part of the list.

The target of the assay is OsWRKY34 (Oryza sativa, UniProt Q0JBA9 1-250). As to the kind of experiment: protein-binding microarray (RPBM); PBS, 2% BSA, 51.3 ng/ul salmon testes DNA, 50 uM zinc acetate, 200 nM TF, 25 C, 1 h; high values mean tight binding. The settings on record: protein: recombinant; tags: N-terminal polyhistidine and DsRed monomer fusion (pET32a); label: CyDye5-dUTP incorporated in the synthesized complementary strand; 3' TTTTT single-stranded linker to array surface; dsDNA, one strand shown. In a few lines: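 The binding signal is fluorescence intensity per array feature (arbitrary units). Readings came from an Axon 4000B scanner after a washed, 2% BSA-blocked, double-stranded custom Agilent array had been incubated for 1 h at 25 °C with 200 nM protein and 50 µM zinc acetate. The protein was a Ni–NTA-purified transcription factor fused N-terminally to polyhistidine and DsRed, expressed in E. coli BL21-CodonPlus.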
Take “ATCCTCACGTAATATACACCTTCGTACCATAATATAATAACGGAGTCACCTAGTGCAG”: the binding signal was 8250 fluorescence intensity (a.u.).
“AAATCTTGGGTTTATGTGGGCGACGATGTCGGTTTGGAAACGGAGTCACCTAGTGCAG”: the binding signal is 8060 fluorescence intensity (a.u.).
With “TGCTTCCAGTGTTGATAGTTATGCCATATACCGCTTAAGCCGGAGTCACCTAGTGCAG” the figure was 8320 fluorescence intensity (a.u.).
With “CTCGCGATTTCTCTTTTAAGTGTACAATTAGCTTTTTTAACGGAGTCACCTAGTGCAG” the figure was 8190 fluorescence intensity (a.u.).
With “CTGGGAGGGAGGGGAGGGAGCGCCGCCTTTGCCACTATCGCGGAGTCACCTAGTGCAG” the figure was 16900 fluorescence intensity (a.u.); with “ATTTCACAGTTTTTTGACACAGTTTTCGTTTTCCATCACTCGGAGTCACCTAGTGCAG”, 11600 fluorescence intensity (a.u.).
Regarding “TTCGTTGCCTAATTTTTTTTTATACGGACACACATTTGAACGGAGTCACCTAGTGCAG”, the binding signal is 9410 fluorescence intensity (a.u.).
With “GTGGGATTGTGATTTTGTTTGTAACTAGTTATGTATCCAACGGAGTCACCTAGTGCAG” the figure was 10500 fluorescence intensity (a.u.); with “ATCACTTGTTTGCTTATTATTTACATATATGGTATTCACTCGGAGTCACCTAGTGCAG”, 10200 fluorescence intensity (a.u.).
With “CTTTCCCTTGCTCGTGTCGCCATGTAGGCTGTTGAGTTGGCGGAGTCACCTAGTGCAG” the figure was 8690 fluorescence intensity (a.u.); with “CCCGTGCTCTTTGTAGATTTACTACCTTTGGACTTGACCTCGGAGTCACCTAGTGCAG”, 11200 fluorescence intensity (a.u.); with “TGATTGAACATTGCAGCCTCATCTTTCCGATTGTGTTTGTCGGAGTCACCTAGTGCAG”, 9100 fluorescence intensity (a.u.).
In the case of “TTTTGTTGCAATGCCTATTACTGTCGTATTTTTTAGACATCGGAGTCACCTAGTGCAG”, the binding signal is 11900 fluorescence intensity (a.u.).
Regarding “CATCACTCCTTCCACCAAACCTCGATTCTCACCACTGCCCCGGAGTCACCTAGTGCAG”, the binding signal is 9100 fluorescence intensity (a.u.).
With “CCTCACGCCGTGACGCTCATAACATTTTTTTTCTCGTCATCGGAGTCACCTAGTGCAG” the figure was 10500 fluorescence intensity (a.u.); with “GCTTTTACCCGTTACGCACGGTCATCTTTTCTATTTTTATCGGAGTCACCTAGTGCAG”, 12500 fluorescence intensity (a.u.).
With “ATCCTCATATCGTGTATCCGTATTCGTATCCCCGTATTTGCGGAGTCACCTAGTGCAG” the figure was 8230 fluorescence intensity (a.u.); with “AAGTTTGACCAATAATAAACGTTGGACCGTACCTACTAATCGGAGTCACCTAGTGCAG”, 8160 fluorescence intensity (a.u.).
In the case of “ACGACGTCGCCGACTACATCCGCTTCCGCGCCGTGTGCCGCGGAGTCACCTAGTGCAG”, the binding signal was 11500 fluorescence intensity (a.u.).
With “CTGGAGTAGGTGGAGGGGCGGCGTCAGTGCGCTAGAGCAGCGGAGTCACCTAGTGCAG”, the binding signal is 8980 fluorescence intensity (a.u.).
With “CCTATTTTTAGCACCGTTGTCTTTTGATCCACGTTTGAACCGGAGTCACCTAGTGCAG” the figure was 11700 fluorescence intensity (a.u.); with “GGCTCCGTTTTGTGTCGAATACTTTTTAGATGGTTACTCCCGGAGTCACCTAGTGCAG”, 9110 fluorescence intensity (a.u.).
With “AACTTGCTCTAATCCTATTCTGACGTGGCCACCCGCTCCGCGGAGTCACCTAGTGCAG” the figure was 10500 fluorescence intensity (a.u.); with “TACTGGTTCTACTTGATCTTATTTATCTTTTTATTCTATTCGGAGTCACCTAGTGCAG”, 10100 fluorescence intensity (a.u.).
“ATTAACCACCCCTTTTCAGGTTTGACCTTTTGATGCTCGCCGGAGTCACCTAGTGCAG”: the binding signal is 11100 fluorescence intensity (a.u.).
With “TTAACCATTTCTCGCTCATCACAACACCACCTCACCTCACCGGAGTCACCTAGTGCAG” the figure was 9190 fluorescence intensity (a.u.); with “ATCCCCACTGCTGCTTCCGTCCGCTTCCGATTCCAAGTTTCGGAGTCACCTAGTGCAG”, 13600 fluorescence intensity (a.u.).
With “AGTTTTACAATTTGTCTATTCTCTTTCACACCAGGATCCTCGGAGTCACCTAGTGCAG” the figure was 8600 fluorescence intensity (a.u.); with “AGTGTCCATTATGGTGTTTCTTAATTGTCTTTTGCTTTTTCGGAGTCACCTAGTGCAG”, 11100 fluorescence intensity (a.u.).
With “AACCACCACTACACATCTACTTCTGGGCCACATGGGCCAACGGAGTCACCTAGTGCAG” the figure was 8230 fluorescence intensity (a.u.); with “CTTGCCAACTTGTCCCAAATTTCCTTCGGCGTTTTTTCATCGGAGTCACCTAGTGCAG”, 8080 fluorescence intensity (a.u.).
On to “TGTTTTCTGAATGCGAAATCGATCCCCGCTATTATATATTCGGAGTCACCTAGTGCAG”, for which the binding signal was 8430 fluorescence intensity (a.u.).
With “CGTCGATGTCCTCCGCCGCGAGCGCCTTGCTCTGCACCTTCGGAGTCACCTAGTGCAG” the figure was 8110 fluorescence intensity (a.u.); with “GGGTGGGCAATTCACTTTATATTCCAACACTCCCCGCCTCCGGAGTCACCTAGTGCAG”, 8860 fluorescence intensity (a.u.).
With “CGGTTGTCACACACACTTTTCTGCCTTCAACTGTATCGCCCGGAGTCACCTAGTGCAG” the figure was 9940 fluorescence intensity (a.u.); with “ACTGATGTTTATGCCGTTCATAATTGGTTGGTTGATGCATCGGAGTCACCTAGTGCAG”, 9530 fluorescence intensity (a.u.); with “GTCCGCACTGCCCCATGGACGGCCCTGCCTGTTTCATATTCGGAGTCACCTAGTGCAG”, 9930 fluorescence intensity (a.u.).
With “CGTCGTACTGCCACTGCCGCCGCCGATCCGGTCCATACTCCGGAGTCACCTAGTGCAG” the figure was 9120 fluorescence intensity (a.u.); with “CTCTCTCTCTGATTGTTCTCTTCTGCTTGCCTCTTCCATGCGGAGTCACCTAGTGCAG”, 8340 fluorescence intensity (a.u.); with “TCGTCCGCTGCAGCCGCTCGCTAGCTAGTAGCTATAGCTACGGAGTCACCTAGTGCAG”, 8160 fluorescence intensity (a.u.).
For the sequence “GTCGGTGTAATATTTCTTTTGTTATAACAAATTTGTTTTGCGGAGTCACCTAGTGCAG”, the binding signal was 8330 fluorescence intensity (a.u.).
With “CTTATTCCTTACTTAAATACTTAGGGGTTTTCATTATACTCGGAGTCACCTAGTGCAG” the figure was 8200 fluorescence intensity (a.u.).
